# According to US20030220373A1, “Therapeutic uses of PPAR mediators” (priority 2000, published 2003):
# At least one structure is not confirmed: it was looked up by name or label, or the drawing left a doubt.
# System: ABC1 expression
# Assay: ABC1 up-regulation in human primary hepatocytes (RNA analysis)
# Assay type: cell-based
# Details: human primary hepatocytes (FIG. 4)
# Procedure: Assay Example 2: ABC 1 Up-regulation in Human Hepatocytes and Human Macrophages Derived Monocytes by Fenofibric Acid, and for Wy 14,643 and Related Cholesterol Efflux in Macrophages Human liver specimens are collected from healthy multiorgan donors for transplantation who died after severe traumatic brain injury. Hepatocytes are obtained by a two-step collagenase perfusion (REF). Cells are resuspended in minimal essential medium with Earl's salts with 10% FCS, 2 mM glutamine, […] gentamycin, seeded at density of 1.5×10^5 cells/cm^2 in plastic culture dishes coated with 20 mg rat tail collagene type I (Sigma).Medium is renewed after 4 hours of adhesion. After 20 hours the medium is discarded and differents compounds added at the indicated concentrations in serum-free medium. Total cellular RNA is extracted from differentated macrophages treated for 6 hours with different compounds using the RNA plus kit (Bioprobe System, Montreuil, france). RNA from human hepatocytes are prepared as described by Chomczynski and Sacchi. For RT-PCR analysis, total RNA is reverse transcribed using random hexamer primers and Superscript reverse transcriptase (Life Technologies) as sebsequently amplified by PCR. The resulting products are separated on a 1% agrose gel and stained with ethidium bromide.
smiles,measurement,value
CC(C)(Oc1ccc(C(=O)c2ccc(Cl)cc2)cc1)C(=O)O [Fenofibric acid],ABC1 up-regulation,ABC1 up-regulation
